Measured values published in publication PMC3063778.
For at least one entry, the source does not settle the construct or the ends of the probe.

Target: His-MphR (Acinetobacter calcoaceticus PHEA-2) (UniProt F0KIC5)
Test: EMSA
Conditions: 5-50 nM His-MphR, 2.5 nM DNA, poly(dI-dC), no phenol stated, 20 mM Tris-HCl pH 7.5, 50 mM KCl, 6 mM DTT, 0.5% Tween-20, 0.05 ug/ul poly(dI-dC), 10 ul, 20 min at 30 C, 8% PAGE in 0.5x TBE, recombinant protein, residues 1-556, protein details: His tag (pET-28), label: 5' IRD800 (M13 primers), probe letters rebuilt from the primers and the genome, part of a longer molecule

## GTACTCCATCAAGACATGGTCTTGAAATTGATGAATGCTCCTTGCTCTCGCTATAAGCTTTACAAAAGCTATGCCAACTTTATTTTTATTATTAAAAACAATTAATTAAAATTTTTATGGAAAGTAAGGTATTTTTAAAATTCACTATTTCATGAATTTTTTTGAATGGTGAAATAGAGATATTCATGATTTGATGAATAGGGTCGTAAAAATTTCTTTTTAGATTGTTTGAGGCTTTAAATGGAGAGATTTAGAAATACTTTTTTAGTATGAAGTTATGTCTTTAAGATACTAGGACATTTATCTGGTTCTTCGATAAGATGAGATAAAACCCAAATGTGTTTAATGGATTAAAACAGATCACTCATGGCTCGA (double strand) [P380]
  binding result: binds
